From publication PMC10063565

Target: T1, Nicotinamide Nucleotide Transhydrogenase (NNT) (mouse (endogenous in kidney)) (UniProt Q61941)
T1 sequence: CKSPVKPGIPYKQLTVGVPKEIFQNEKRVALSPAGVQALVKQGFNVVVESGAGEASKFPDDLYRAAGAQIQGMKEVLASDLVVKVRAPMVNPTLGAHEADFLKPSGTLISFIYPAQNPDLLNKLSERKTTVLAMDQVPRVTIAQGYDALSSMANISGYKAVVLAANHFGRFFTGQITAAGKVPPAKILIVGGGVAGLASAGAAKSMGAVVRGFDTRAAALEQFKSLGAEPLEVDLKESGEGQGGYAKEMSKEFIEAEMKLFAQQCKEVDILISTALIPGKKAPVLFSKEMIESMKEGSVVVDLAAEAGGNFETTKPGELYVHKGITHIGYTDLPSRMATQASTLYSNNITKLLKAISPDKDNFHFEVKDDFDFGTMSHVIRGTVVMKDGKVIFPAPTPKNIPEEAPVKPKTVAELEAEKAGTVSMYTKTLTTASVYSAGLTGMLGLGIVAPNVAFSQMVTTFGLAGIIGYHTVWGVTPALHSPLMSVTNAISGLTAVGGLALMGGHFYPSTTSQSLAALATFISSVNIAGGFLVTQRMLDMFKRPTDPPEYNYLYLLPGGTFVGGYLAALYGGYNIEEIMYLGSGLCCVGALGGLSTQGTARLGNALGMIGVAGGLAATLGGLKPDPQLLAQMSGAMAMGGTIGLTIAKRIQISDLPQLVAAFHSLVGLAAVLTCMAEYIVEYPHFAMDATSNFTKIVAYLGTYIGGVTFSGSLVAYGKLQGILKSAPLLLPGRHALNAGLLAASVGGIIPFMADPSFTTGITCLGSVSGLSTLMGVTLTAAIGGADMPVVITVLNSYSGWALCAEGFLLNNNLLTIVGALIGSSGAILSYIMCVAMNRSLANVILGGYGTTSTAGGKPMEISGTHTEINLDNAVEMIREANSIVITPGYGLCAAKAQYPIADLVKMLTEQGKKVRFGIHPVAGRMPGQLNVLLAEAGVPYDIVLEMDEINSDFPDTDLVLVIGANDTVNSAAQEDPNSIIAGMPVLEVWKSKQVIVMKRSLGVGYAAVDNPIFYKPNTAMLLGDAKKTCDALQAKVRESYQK
Assay: co-IP; kidney lysates of Pkd1F/H-BAC vs WT mice, agarose-conjugated anti-NNT (B3), blotted with HRP-conjugated anti-HA

binding: binds
Substance: CTF derived from full-length 3FLAG-PC1-3HA (domain or fragment)

No constants are given. Whether binding was seen depends on the method and setting. In cells and extracts the contact can be indirect. Binding calls can cover weak binding; strength is not graded here.
